The data set in a line: general procedure: solution-phase peptide synthesis; DCCI/HOBt; azide method; HOOBt ester. Particulars: late stage modification step, acetate.

In the case of “H-Met-Ala-Ala-Phe-D-Lys-Phe-Gly-D-Lys-Pro-Val-Gly-Lys-Lys-NH2.acetate”, the step yield was 65.8%.

The values above are taken from US4110322A (Akzona Incorporated, priority 1976, dated 1978).
